Test results taken from article PMC4892512.
No constants are given. Whether binding was seen depends on the method and setting.

Amino acid sequences for entries named in this document (tags omitted). Residues count along the entry.
UniProt P70206, residues 28-1234: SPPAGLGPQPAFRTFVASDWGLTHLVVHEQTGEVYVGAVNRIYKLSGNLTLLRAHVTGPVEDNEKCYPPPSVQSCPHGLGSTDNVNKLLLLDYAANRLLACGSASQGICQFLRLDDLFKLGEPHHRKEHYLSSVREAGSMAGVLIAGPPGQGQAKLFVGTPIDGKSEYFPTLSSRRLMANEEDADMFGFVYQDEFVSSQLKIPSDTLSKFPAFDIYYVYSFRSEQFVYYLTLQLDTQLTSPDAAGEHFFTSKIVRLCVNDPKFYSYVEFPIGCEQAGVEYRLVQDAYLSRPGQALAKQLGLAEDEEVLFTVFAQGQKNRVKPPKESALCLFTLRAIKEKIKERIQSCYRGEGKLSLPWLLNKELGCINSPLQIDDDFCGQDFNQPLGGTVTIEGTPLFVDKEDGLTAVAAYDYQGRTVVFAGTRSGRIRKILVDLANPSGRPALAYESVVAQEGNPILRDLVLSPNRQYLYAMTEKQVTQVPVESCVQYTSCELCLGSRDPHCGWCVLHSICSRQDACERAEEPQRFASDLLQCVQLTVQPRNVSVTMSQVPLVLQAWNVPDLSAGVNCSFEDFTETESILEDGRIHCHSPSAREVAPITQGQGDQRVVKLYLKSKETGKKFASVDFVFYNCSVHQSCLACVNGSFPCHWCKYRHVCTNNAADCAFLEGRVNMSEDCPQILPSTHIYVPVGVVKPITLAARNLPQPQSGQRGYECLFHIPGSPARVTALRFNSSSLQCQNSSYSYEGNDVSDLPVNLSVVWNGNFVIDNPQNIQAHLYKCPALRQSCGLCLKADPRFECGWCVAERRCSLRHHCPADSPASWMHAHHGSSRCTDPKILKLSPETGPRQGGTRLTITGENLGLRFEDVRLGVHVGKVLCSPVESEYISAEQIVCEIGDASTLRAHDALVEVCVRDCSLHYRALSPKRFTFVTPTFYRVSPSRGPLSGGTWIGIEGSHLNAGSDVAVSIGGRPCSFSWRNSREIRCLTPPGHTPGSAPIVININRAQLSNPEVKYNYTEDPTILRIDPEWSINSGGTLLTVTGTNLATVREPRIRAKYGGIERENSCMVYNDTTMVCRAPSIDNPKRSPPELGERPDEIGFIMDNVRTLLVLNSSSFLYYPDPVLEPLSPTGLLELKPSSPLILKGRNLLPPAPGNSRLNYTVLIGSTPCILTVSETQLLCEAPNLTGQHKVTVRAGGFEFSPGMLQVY

Biological target: mouse PlxnA1_(1-10), full-length plexin-A1 ectodomain fragment comprising domains 1 through 10 (mouse) (UniProt P70206)
Test: SEC + other: negative-stain electron microscopy; purified PlxnA1_(1-10) on Superdex 200; monodispersed peak fraction negatively stained with uranyl acetate, 2D class averages (30 classes, ~2,200 particles); both purified

binding: no binding
Substance: mouse PlxnA1_(1-10), full-length plexin-A1 ectodomain fragment comprising domains 1 through 10 (from UniProt P70206 28-1234) (domain or fragment)
